PubChem BioAssay AID1224826 | NIAID | 2016

Test: 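Knock-downs that raise or lower Tnf reporter signal after endotoxin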 (primary screen)
Cells: RAW264.7 G9 macrophages from mouse bearing reporters for p65 (GFP) and the Tnf promoter (mCherry)
Reagents: siRNA pool against mouse genes, 100 nM
Time to read-out: 16 h of LPS stimulation, after 2 days of siRNA transfection
Challenge: bacterial lipopolysaccharide (Salmonella minnesota R595), 10 ng/ml
Detection: 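Imaged Tnf reporter mCherry in nuclei, minus background, normalised per plate to the median and expressed as robust z-scores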
Direction: Tnf reporter robust z-score: higher = stronger Tnf promoter reporter signal after LPS; Tnf reporter intensity: higher = stronger Tnf promoter reporter signal
Hit rule: 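a well counts as active at a score of -1.3 or below (Tlr4 knock-down control median) or above 3 (raised signal); controls and wells holding fewer than 50 cells are excluded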
Meaning of the calls: active = Tnf reporter clearly lowered or raised; inactive = no clear change in Tnf reporter
Here is an unselected part of about 17,000 reagents tested. In the full data, about 1,110 (6.6%) are marked active. 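Active means lowered or raised reporter signal; replicate intensities are raw and not normalised per plate.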 Unmarked entries are inactive.

| Target gene | Tnf reporter robust z-score | fewer than 50 cells in well | Tnf reporter intensity, replicate 1 | Tnf reporter intensity, replicate 2 |
| --- | --- | --- | --- | --- |
| Gucy1a2 | -0.06 | enough cells in well | 261 | 222 |
| Fam3a | – | fewer than 50 cells per well; well left out of calls | 172 | 49.7 |
| Ypel1 | -0.88 | enough cells in well | 87.1 | 48 |
| Ror2 | -0.86 | enough cells in well | 139 | 114 |
| Cc2d1b | -0.17 | enough cells in well | 157 | 148 |
| Rffl | -1.95 (active) | enough cells in well | 49.6 | 50.5 |
| Pank1 | – | fewer than 50 cells per well; well left out of calls | 113 | 119 |
| Pdgfb | -2.19 (active) | enough cells in well | 71.6 | 51.1 |
| Klra10 | 0.66 | enough cells in well | 271 | 199 |
| Tspo2 | -0.26 | enough cells in well | 115 | 128 |
| Zfp647 | – | fewer than 50 cells per well; well left out of calls | 195 | 87.1 |
| Htr6 | -0.64 | enough cells in well | 178 | 215 |
| Tsga13 | -0.3 | enough cells in well | 109 | 77.9 |
| Mrpl9 | 0.86 | enough cells in well | 172 | 203 |
| Dse | -0.67 | enough cells in well | 77.1 | 121 |
| Zdhhc9 | 0.13 | enough cells in well | 132 | 128 |
| Bend3 | -0.01 | enough cells in well | 240 | 153 |
| Cdca3 | -0.35 | enough cells in well | 134 | 170 |
| Stau1 | 4.5 (active) | enough cells in well | 266 | 80.5 |
| Trim32 | 0.26 | enough cells in well | 238 | 264 |
| Mapk8ip2 | -0.74 | enough cells in well | 151 | 117 |
| Vmn1r198 | 0.91 | enough cells in well | 154 | 180 |
| Tdpoz4 | – | fewer than 50 cells per well; well left out of calls | 62 | 47.2 |
| Col4a5 | 0.31 | enough cells in well | 280 | 223 |
| Cd6 | 0.55 | enough cells in well | 290 | 248 |
| Rasa3 | -0.64 | enough cells in well | 236 | 166 |
| Xpo1 | 0.93 | enough cells in well | 300 | 305 |
| Patl1 | -0.44 | enough cells in well | 121 | 164 |
| Rassf9 | 1.92 | enough cells in well | 225 | 236 |
| Zfpl1 | 0.66 | enough cells in well | 175 | 126 |
| Igf2bp1 | 0 | enough cells in well | 267 | 163 |
| Parp9 | 0.3 | enough cells in well | 213 | 246 |
| Ccar1 | -0.65 | enough cells in well | 119 | 151 |
| Ctnna3 | 1.48 | enough cells in well | 328 | 351 |
| Ighmbp2 | -1.02 | enough cells in well | 154 | 125 |
| Tmem45a | -0.86 | enough cells in well | 103 | 114 |
| Ttc16 | -0.32 | enough cells in well | 132 | 74.5 |
| Padi1 | – | fewer than 50 cells per well; well left out of calls | 44.8 | 106 |
| Ahcy | -0.72 | enough cells in well | 175 | 123 |
| Sox5 | 1.8 | enough cells in well | 157 | 163 |
| Haus1 | 0.29 | enough cells in well | 306 | 195 |
| Slc12a7 | -0.07 | enough cells in well | 106 | 90.9 |
| Eif2d | -0.04 | enough cells in well | 204 | 131 |
| Trim36 | – | fewer than 50 cells per well; well left out of calls | 69.1 | 105 |
| Mtmr7 | 0.55 | enough cells in well | 241 | 141 |
| Tfcp2l1 | 0.51 | enough cells in well | 137 | 114 |
| Prl8a2 | 0.89 | enough cells in well | 258 | 139 |
| Gfra1 | 1 | enough cells in well | 284 | 369 |
| Or51ah3 | 2.55 | enough cells in well | 172 | 233 |
| Or5p80 | – | fewer than 50 cells per well; well left out of calls | 65 | 40.5 |
| Srebf1 | 0.1 | enough cells in well | 313 | 202 |
| Malt1 | -0.45 | enough cells in well | 125 | 176 |
| Impa2 | 0.71 | enough cells in well | 319 | 170 |
| F7 | 1.09 | enough cells in well | 323 | 304 |
| Abhd4 | -0.64 | enough cells in well | 134 | 112 |
| Rpap1 | 0.22 | enough cells in well | 142 | 134 |
| Ebag9 | -0.41 | enough cells in well | 216 | 177 |
| Ccdc71l | 1.37 | enough cells in well | 188 | 91.9 |
| Btg4 | -0.91 | enough cells in well | 70.8 | 153 |
| Flvcr2 | 0.1 | enough cells in well | 172 | 262 |
| Sphkap | – | fewer than 50 cells per well; well left out of calls | 180 | 22.7 |
| Or5p73 | – | fewer than 50 cells per well; well left out of calls | 62 | 75.9 |
| Scn3b | -1.67 (active) | enough cells in well | 60.9 | 40.4 |
| Ahcyl1 | 0.3 | enough cells in well | 214 | 154 |
| 1810055G02Rik | – | fewer than 50 cells per well; well left out of calls | 130 | 61.2 |
| Or8c8 | 0.76 | enough cells in well | 211 | 163 |
| Supt6 | -1.91 (active) | enough cells in well | 106 | 70.7 |
| Cep70 | 0.31 | enough cells in well | 150 | 139 |
| Cdkn2b | -0.36 | enough cells in well | 196 | 118 |
| Gpr107 | 0.52 | enough cells in well | 228 | 233 |
| Hgf | 0.42 | enough cells in well | 270 | 217 |
| 2810408A11Rik | -0.21 | enough cells in well | 161 | 68.5 |
| Ss18l2 | -1.27 | enough cells in well | 129 | 74.7 |
| Aplp2 | – | fewer than 50 cells per well; well left out of calls | 58.8 | 57.3 |
| Efs | -0.97 | enough cells in well | 167 | 140 |
